These are yes or no findings as the source states them, for the method shown. In cells and extracts the contact can be indirect. Binding calls can cover weak binding; strength is not graded here. For part of these data: Where a sequence is shown, tags or fusion partners need not be part of it.
Key:
FLAG-tagged B55δ = target: T1, FLAG-tagged B55δ (UniProt Q66LE6); experiment: co-IP; FLAG immune complexes (FLAG affinity beads) from lysates of HEK293 cells transfected with FLAG-tagged regulatory subunits; silver-stained SDS-PAGE and Western blot
T1 sequence: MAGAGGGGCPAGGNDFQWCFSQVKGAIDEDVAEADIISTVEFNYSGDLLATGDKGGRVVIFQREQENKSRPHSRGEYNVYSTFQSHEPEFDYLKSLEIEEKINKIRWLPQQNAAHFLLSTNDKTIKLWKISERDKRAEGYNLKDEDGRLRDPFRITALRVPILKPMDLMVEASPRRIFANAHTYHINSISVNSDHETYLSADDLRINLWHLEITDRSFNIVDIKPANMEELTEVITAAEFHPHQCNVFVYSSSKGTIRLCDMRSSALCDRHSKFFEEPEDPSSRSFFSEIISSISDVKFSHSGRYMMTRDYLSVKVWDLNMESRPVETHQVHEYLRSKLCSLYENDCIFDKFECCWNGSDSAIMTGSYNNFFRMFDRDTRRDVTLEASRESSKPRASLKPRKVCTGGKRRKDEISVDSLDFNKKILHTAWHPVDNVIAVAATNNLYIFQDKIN

Sequences of proteins named here, by UniProt entry; tags and fusion partners are left off. A change or cut given only in a name is not applied to a line headed by its entry.
UniProt Q15173: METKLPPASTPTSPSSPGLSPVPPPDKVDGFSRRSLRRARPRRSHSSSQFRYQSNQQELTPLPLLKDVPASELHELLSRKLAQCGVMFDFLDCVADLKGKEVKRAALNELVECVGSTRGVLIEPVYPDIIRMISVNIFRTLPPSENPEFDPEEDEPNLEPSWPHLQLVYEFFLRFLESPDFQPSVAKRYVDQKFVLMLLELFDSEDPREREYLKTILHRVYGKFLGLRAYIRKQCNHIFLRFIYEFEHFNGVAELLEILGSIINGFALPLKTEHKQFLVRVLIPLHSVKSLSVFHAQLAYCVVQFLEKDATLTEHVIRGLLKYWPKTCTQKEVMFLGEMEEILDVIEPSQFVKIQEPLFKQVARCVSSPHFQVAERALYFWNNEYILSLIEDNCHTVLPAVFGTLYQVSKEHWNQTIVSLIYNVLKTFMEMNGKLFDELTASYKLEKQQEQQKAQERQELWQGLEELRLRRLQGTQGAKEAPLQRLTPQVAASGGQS
UniProt P67775: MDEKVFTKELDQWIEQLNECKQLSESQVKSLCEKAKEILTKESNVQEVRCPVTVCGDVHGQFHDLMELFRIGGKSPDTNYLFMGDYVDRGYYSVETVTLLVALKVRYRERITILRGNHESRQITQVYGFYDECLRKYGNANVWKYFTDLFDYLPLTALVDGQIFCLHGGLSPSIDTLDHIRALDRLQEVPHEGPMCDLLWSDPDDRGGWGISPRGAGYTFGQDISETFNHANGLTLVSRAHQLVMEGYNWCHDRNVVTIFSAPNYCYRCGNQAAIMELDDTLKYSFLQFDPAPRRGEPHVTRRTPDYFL

FLAG-tagged B56β = FLAG-tagged B56β (UniProt Q15173); experiment: as above

Substance | binding (FLAG-tagged B55δ) | binding (FLAG-tagged B56β)
PP2A C (catalytic) subunit (from UniProt P67775) | binds | binds
PP2A A (structural) subunit (human (endogenous in HEK293)) | binds | 

Source: publication PMC3949306
